Reference: PubChem BioAssay AID652259 (Drosophila RNAi Screening Center, 2013)

Test: 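Identify new Wingless signalling regulators in fly cells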 (primary screen)
System: Drosophila clone 8 imaginal disc epithelial cells
Reagents: long dsRNA against Drosophila genes
Treatment: pathway stimulated by co-transfected Wingless expression plasmid
Detection: 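Dual luciferase reads per well after Wingless plasmid stimulation: reporter firefly light and Renilla control light; activity is firefly divided by Renilla, a ratio not deposited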
Scale: firefly reporter light: higher = more Wg reporter light, before normalisation; Renilla control light: higher = more transfected or surviving cells
Call rule: 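a knock-down is a candidate when at least two out of four statistical tests show it departing from its plate mean; one test alone signals a weak candidate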
Calls: active = candidate regulator (raises or lowers reporter); inactive = not a candidate
The screen tested about 22,000 reagents; below is a random part of those with a known target gene and a result. Over the whole deposit, 233 (1.1%) are marked active. 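Light values are raw, unnormalised plate reads; the ratio scores behind the reporter calls were not deposited.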 Entries without a mark were called inactive. Reagents against one gene are numbered here. A plus sign joins genes that one reagent is predicted to hit. No sequences are given here. Not stated in the record: the amount of reagent, the time to read-out, the dose of the treatment.

predicted target | dsRNA no. | firefly reporter light, replicate 1 | firefly reporter light, replicate 2 | Renilla control light, replicate 1 | Renilla control light, replicate 2
Esyt2 | 1 | 2390 | 4171 | 1191 | 1292
ND-49L | 1 | 10237 | – | 8696 | –
CG13314 | 1 | 903 | 8008 | 1046 | 2448
LPCAT | 1 | 23472 | – | 12701 | –
LPCAT | 2 | 15106 | – | 9911 | –
Vha100-1 | 1 | 2819 | 5456 | 711 | 1801
CG11454 | 1 | 5540 | – | 2656 | –
Nse1 | 1 | 13024 | – | 4429 | –
Rrp4 | 1 | 15334 | – | 3594 | –
lbk | 1 | 12064 | – | 2745 | –
CG18538 | 1 | 7595 | – | 2359 | –
Gr43a | 1 | 2859 | 6992 | 691 | 2198
Usp2 | 1 | 4344 | 10818 | 1588 | 3223
Usp2 | 2 | 25290 | – | 8186 | –
Ugt316A1 | 1 | 14368 | – | 4532 | –
CG3528 | 1 | 3163 | 7419 | 746 | 2141
CG8160 | 1 | 10945 | – | 4246 | –
CG8160 | 2 | 7.60e5 | 6.99e5 | 3.67e5 | 3.28e5
CG43123 | 1 | 23388 | – | 8196 | –
Notum | 1 | 7477 | – | 3037 | –
Uba4 | 1 | 1716 | 7239 | 656 | 2600
CG9014 | 1 | 3021 | 9850 | 1537 | 4674
Lectin-galC1 | 1 | 2669 | 5987 | 896 | 2192
CG8500 | 1 | 14940 | – | 3426 | –
ninaD | 1 | 2693 | 7168 | 1153 | 2564
Gr93a | 1 | 38096 | – | 6067 | –
Ibf1 | 1 | 16758 | – | 4732 | –
CG43691 | 1 | 6440 | – | 3248 | –
CG43691 | 2 | 5665 | – | 2483 | –
ETH + asRNA:CR43257 | 1 | 3708 | 5761 | 483 | 1497
atk | 1 | 3701 | – | 1268 | –
atk | 2 | 11008 | – | 3004 | –
qless | 1 | 7000 | – | 2992 | –
qless | 2 | 6896 | – | 2864 | –
Tsp2A | 1 | 19024 | – | 16715 | –
CG18343 | 1 | 8613 | – | 3272 | –
CG10591 | 1 | 7705 | – | 2001 | –
PK1-R | 1 | 17222 | – | 3522 | –
CG3294 | 1 | 7912 | – | 3136 | –
IFT52 | 1 | 1707 | 5046 | 731 | 2320
CG10340 | 1 | 2969 | 7113 | 1596 | 2096
CG31673 | 1 | 10317 | – | 3106 | –
Gr36c | 1 | 1812 | 6411 | 896 | 2673
Abca3 | 1 | 32640 | – | 14493 | –
CG40378 (retired record) | 1 | 7.06e5 | 7.32e5 | 3.03e5 | 3.02e5
CG9304 | 1 | 2560 | 6522 | 578 | 2373
Whamy | 1 | 19017 | – | 3869 | –
Lap1 | 1 | 4856 | – | 1770 | –
CrebA | 1 | 4273 | – | 2098 | –
prd1 | 1 | 28036 | – | 3978 | –
Dhpr | 1 | 3784 | 9594 | 1770 | 4169
CG5618 | 1 | 7654 | – | 2869 | –
CG4829 | 1 | 2320 | 5492 | 897 | 2123
Tbcd | 1 | 7893 | – | 2699 | –
htk | 1 | 16244 | – | 7176 | –
htk | 2 | 2678 | 14502 | 1212 | 3564
CG43103 | 1 | 23383 | – | 16481 | –
CG9008 | 1 | 6451 | – | 3649 | –
Plp | 1 | 7288 | – | 3074 | –
Plp | 2 | 4512 | – | 1782 | –
Plp | 3 | 2759 | – | 1200 | –
CG6000 | 1 | 15696 | – | 12849 | –
Vha14-2 | 1 | 18364 | – | 3856 | –
CG42535 | 1 | 1773 | – | 850 | –
CG4230 | 1 | 4160 | – | 2323 | –
Irc | 1 | 3379 | 6439 | 1408 | 2010
CG14717 | 1 | 13354 | – | 3341 | –
Osi18 | 1 | 14624 | – | 4224 | –
Or33c | 1 | 1957 | 5143 | 944 | 2867
Mybbp1A | 1 | 1171 | 6234 | 889 | 1876
CG31269 | 1 | 17012 | – | 3078 | –
CG1544 | 1 | 1872 | 4210 | 628 | 1911
CG10359 | 1 | 4021 | – | 2001 | –

Sorted by “Renilla control light, replicate 1” (low to high): some entries from above
predicted target | dsRNA no. | firefly reporter light, replicate 1 | firefly reporter light, replicate 2 | Renilla control light, replicate 1 | Renilla control light, replicate 2
Uba4 | 1 | 1716 | 7239 | 656 | 2600
Lectin-galC1 | 1 | 2669 | 5987 | 896 | 2192
ninaD | 1 | 2693 | 7168 | 1153 | 2564
CG9014 | 1 | 3021 | 9850 | 1537 | 4674
Notum | 1 | 7477 | – | 3037 | –
CG8500 | 1 | 14940 | – | 3426 | –
Gr93a | 1 | 38096 | – | 6067 | –
